Data from article PMC9935853.

By UniProt entry, the sequences of proteins in these tests, tags left out. Where a name states a change or a piece, a line headed by the entry shows the natural chain unless it says otherwise.
UniProt O94705: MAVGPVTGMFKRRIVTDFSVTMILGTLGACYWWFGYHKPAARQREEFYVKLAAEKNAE

Biological target: T1, S. pombe cytochrome c oxidase subunit Cox5 with a C-terminal twin-strep tag (S. pombe) (UniProt O74988)
T1 sequence: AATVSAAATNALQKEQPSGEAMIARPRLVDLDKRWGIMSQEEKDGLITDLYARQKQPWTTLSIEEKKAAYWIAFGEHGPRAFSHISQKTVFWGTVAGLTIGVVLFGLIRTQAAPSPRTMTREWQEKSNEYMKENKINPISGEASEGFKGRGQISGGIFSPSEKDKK
Experiment: cryo-EM structure; CIV purified through Cox5-2xstrep in GDN (25 mM KH2PO4 pH 8.0, 150 mM KCl, 0.01% GDN), ~4 mg/ml on grids; map at 3.4 Å overall

| Substance | binding |
| --- | --- |
| S. pombe cytochrome c oxidase subunit Cox6 | binds |
| S. pombe cytochrome c oxidase subunit Cox9 (from UniProt O94705) | binds |

Results are given in words; binding and its absence hold for the method and conditions named. Binding can be weak; no strength is given. Sequences can lack the tags named with a protein.
